# Measurements: PubChem BioAssay AID504847 (National Center for Advancing Translational Sciences (NCATS), 2011)
# The chains behind the UniProt entries cited, without tags or fusion partners. Where a name states a change or a piece, a line headed by the entry shows the natural chain unless it says otherwise.
# UniProt P11473: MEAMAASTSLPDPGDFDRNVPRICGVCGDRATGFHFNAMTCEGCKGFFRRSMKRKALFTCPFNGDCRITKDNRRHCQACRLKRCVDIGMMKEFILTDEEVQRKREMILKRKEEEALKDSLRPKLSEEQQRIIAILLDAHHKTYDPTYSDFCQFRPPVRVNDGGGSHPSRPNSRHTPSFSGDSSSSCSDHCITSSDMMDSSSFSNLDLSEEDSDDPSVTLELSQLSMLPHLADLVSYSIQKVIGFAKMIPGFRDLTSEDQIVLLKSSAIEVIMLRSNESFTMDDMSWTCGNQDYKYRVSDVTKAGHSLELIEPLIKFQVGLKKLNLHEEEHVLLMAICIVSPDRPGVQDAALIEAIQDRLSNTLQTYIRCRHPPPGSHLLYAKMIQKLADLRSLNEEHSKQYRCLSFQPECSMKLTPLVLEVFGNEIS
# The whole screen tested about 400,000 compounds, of which about 3,700 (0.93%) were called active. Inconclusive results, whose numbers are uncertain, are shown with a selection of clear calls. Calls follow the shape of the dose curve; as a rule, active = well fitted inhibition curve with a large enough effect; inconclusive = small, poorly fitted or top-dose-only effect, or another doubt; inactive = no such curve, though single readings can be large or run the other way. Where the call is inconclusive, the potency comes from a doubtful curve fit.
# Target: Vitamin D3 receptor (Homo sapiens) (UniProt P11473)
# Assay: Inhibitors of the vitamin D receptor (VDR): qHTS
# Details: VDR-SRC2-3 peptide fluorescence polarization, 2 h; max response, negative = inhibition: stronger effect = lower value
# Method in brief: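 Two reagent solutions held at 4 deg C in the dark were dispensed, compounds pinned at 23 nl, and the mixture incubated 2 h at room temperature. Read-out: fluorescence polarization of VDR–SRC2-3 peptide binding.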
# % is scaled to controls: 0 for no effect and ±100 for the full control effect; potency is read from the fitted curve at half-maximal effect.
SMILES,Potency,"max response, negative = inhibition"
COC(=O)c1ccc(C2Nc3c(C)cc(C)cc3C3C=CCC32)cc1 (stereo not drawn),"inconclusive: 56.2 µM [inhibitor, partial curve, poor fit]",
O=C(c1cnccn1)N1CCC[C@@]2(CCN(Cc3cc(C(F)(F)F)cc(C(F)(F)F)c3)C2)C1,"inconclusive: 50.1 µM [inhibitor, partial curve, poor fit]",
C=CCNC(=O)CCc1nnc(C2(c3ccc(Cl)cc3)CCC2)o1,,inactive: -4.77%
CN(C)CCNC(=O)C(=O)Nc1cc2c3c(c1)CCN3C(=O)CC2,"inconclusive: 63.1 µM [inhibitor, partial curve, poor fit]",
CCOC(=O)c1sc(N/N=C/c2ccc(N(C)C)cc2)nc1C,,inactive: 9.81%
O=C(CCN1CCC(c2ccccc2)C1)c1ccc2c(c1)OCCO2 (stereo not drawn),active: 14.1 µM,
CC(=O)NC1C(=O)N(CCN2CCOCC2)c2ccc(C)cc21 (stereo not drawn),"inconclusive: 100 µM [inhibitor, single point]",
COc1ccc2ccc(O)c(CN(C)CC(=O)Nc3ccccc3C(F)(F)F)c2c1,"inconclusive: 56.2 µM [inhibitor, partial curve, poor fit]",
Cc1nnc(NC(=O)CSc2nnc(-c3ccoc3C)n2CC(C)C)s1,"inconclusive: 39.8 µM [inhibitor, partial curve, poor fit]",
O=C(/C=C/c1cccc(Cl)c1)c1ccc([N+](=O)[O-])o1,"inconclusive: 7.94 µM [inhibitor, full curve, poor fit]",
CCc1nnc(NC(=O)CCC(=O)NC2CCCc3ccccc32)s1 (stereo not drawn),,inactive: 9.34%
COc1ccc(-n2cc(CNC3CCN(C)CC3)c(-c3cccc(F)c3)n2)cc1,,inactive: 17.2%
O=[N+]([O-])c1ccc(-n2cccn2)c(-c2nn[nH]n2)c1,"inconclusive: 100 µM [inhibitor, partial curve, poor fit]",
CC(=O)c1ccccc1C(=O)N1CCCC(CNC(=O)c2ccccc2Cl)C1 (stereo not drawn),"inconclusive: 39.8 µM [inhibitor, single point]",
CCOc1ccc(C(=O)/C=C/c2cc(OC)c(OC)c(OC)c2)cc1,"inconclusive: 70.8 µM [inhibitor, partial curve]",
CC(=O)N1c2ccc(S(=O)(=O)N3CCCC3)cc2CC1C(=O)NCc1ccccc1F (stereo not drawn),,inactive: -9.66%
Cc1nc(N)sc1-c1csc(Nc2ccc(S(N)(=O)=O)cc2)n1,"inconclusive: 79.4 µM [inhibitor, partial curve, poor fit]",
CC(CC(C)(C)C)CP(=O)(O)CC(C)CC(C)(C)C (stereo not drawn),"inconclusive: 89.1 µM [inhibitor, single point]",
CCn1nc(C)cc1C(=O)Sc1cccc(Br)c1,"inconclusive: 79.4 µM [inhibitor, partial curve]",
O=C(Cc1coc2cc3c(cc12)CCC3)NC1CCCCCCC1,,inactive: 11.8%
C=CCNc1oc(-c2ccc(-c3ccccc3)cc2)nc1C#N,"inconclusive: 79.4 µM [inhibitor, partial curve]",
CCCC1(C)C(C#N)(C#N)C1(C#N)C#N,active: 10 µM,

# Reprinted at random: two records from the list, in no set order.
SMILES,Potency,"max response, negative = inhibition"
Cc1nc(N)sc1-c1csc(Nc2ccc(S(N)(=O)=O)cc2)n1,"inconclusive: 79.4 µM [inhibitor, partial curve, poor fit]",
O=C(Cc1coc2cc3c(cc12)CCC3)NC1CCCCCCC1,,inactive: 11.8%

# The list goes on:

SMILES,Potency,"max response, negative = inhibition"
COC(=O)N[C@H](c1ccccc1)C(C(C)=O)C(=O)OC (stereo partly drawn),,inactive: 0.268%
Cc1ccc(CN(C)C(=O)c2cc(COc3ccc(F)cc3Cl)on2)o1,"inconclusive: 89.1 µM [inhibitor, single point]",
C[C@H]1CN([C@@H](C)CO)C(=O)c2cccc(NC(=O)Nc3ccc(C(F)(F)F)cc3)c2O[C@@H]1CN(C)Cc1ccc(Cl)c(Cl)c1,,inactive: -19.5%
CN(C)CCCN1c2ccccc2Sc2ccc(Cl)cc21,"inconclusive: 50.1 µM [inhibitor, partial curve, poor fit]",
Nc1nc(NCCc2ccccc2)nc(NCc2ccccc2)c1[N+](=O)[O-],"inconclusive: 3.16 µM [inhibitor, full curve, poor fit]",
Cc1cc2n(n1)SC(Nc1ccc(F)cc1)N2 (stereo not drawn),,inactive: -5.25%
Cc1nc2c(C#N)c[nH]n2c(=O)c1CCO,active: 28.2 µM,
COC(CN(C)C(=O)c1cn(C)c2ccc(S(=O)(=O)N(C)C3CCCCC3)cc2c1=O)OC,"inconclusive: 56.2 µM [inhibitor, partial curve, poor fit]",
Oc1ccc(/C=N/N2CCOCC2)c(O)c1O,"inconclusive: 89.1 µM [inhibitor, single point]",
O=C(c1cccs1)N(Cc1cccc(F)c1)C1CCS(=O)(=O)C1 (stereo not drawn),"inconclusive: 10 µM [inhibitor, partial curve, poor fit]",
Cc1ccc(S(=O)(=O)CC(=O)Nc2ccc(S(=O)(=O)Nc3onc(C)c3C)cc2)cc1,,inactive: -0.0961%
O=C1CCCN2N=C(SCC(=O)Nc3ccc([N+](=O)[O-])cc3)SC2=N1,"inconclusive: 50.1 µM [inhibitor, partial curve]",
COc1ccc(N/C(=C2\CCCC2=O)C2CCCCC2)cc1,"inconclusive: 17.8 µM [inhibitor, partial curve, poor fit]",
Cc1cc(C)n2c(=O)[nH]nc2c1,,inactive: -23.9%
CCOc1ccc(S(=O)(=O)N2CCN(C(=O)c3cc(-c4ccccc4)nn3-c3ccccc3)CC2)cc1,,inactive: -7.61%
COc1ccccc1C(=O)Nc1ccccc1SC(=O)c1ccccc1OC,"inconclusive: 56.2 µM [inhibitor, partial curve, poor fit]",
CCOc1ccc(NC(=O)CCn2c(-c3ccc(F)cc3)cc(C(C)=O)c2C)cc1,,inactive: 10.2%
O=C(COC(=O)/C=C/c1ccccc1[N+](=O)[O-])NC1CC1,active: 70.8 µM,
O=C(CCCn1cnc2ccccc2c1=O)Nc1ccccc1F,,inactive: 2.19%
Cc1ccc(CNC(=O)CC(C)S(=O)(=O)c2ccc3c(c2)NC(=O)CO3)cc1 (stereo not drawn),,inactive: -14.8%
O=C(Nc1cc(S(=O)(=O)N2CCOCC2)ccc1N1CCOCC1)c1ccc([N+](=O)[O-])s1,"inconclusive: 7.94 µM [inhibitor, partial curve, poor fit]",
